# Assay results

Data taken from PubChem BioAssay AID1347101, deposited by NCATS (2019).

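Cell survival of the BT-12 line after two days of treatment, measured through a luminescent ATP-based readout.
Compounds were given as a dilution series, mostly reaching about 57.3 µM at the top.
The value is the fitted concentration for half-maximal cell killing; a lower number means a more potent cytotoxic compound.
Calls come from the fitted dose curve: inconclusive marks weak, poorly fitted, or top-concentration-only killing, as with all rows here.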

Values are in nM.
All entries here are filed as inconclusive.
These entries are mostly ones the record files as inconclusive; other results of the assay are not listed here.
Potencies fitted to partial, single-point or poorly fitting curves are rough.
Some entries filed as inconclusive have a full curve.
An entry listed twice with the same setting is a separate test.

O=C1C[C@@H](c2ccc(O)cc2)Oc2cc(O)cc(O)c21 read Potency 21671 nM (cytotoxic, partial curve, poor fit). For COC(=O)C1C2CC3c4[nH]c5cc(OC)ccc5c4CCN3CC2CC(OC(=O)c2cc(OC)c(OC)c(OC)c2)C1OC (centres unmarked) the result was Potency 30611 nM (cytotoxic, single point). Result for CO[C@@H]1[C@@H](O[C@@H]2O[C@H](C)[C@@H](O[C@H]3C[C@@](C)(O)[C@@H](O)[C@H](C)O3)[C@H](N(C)C)[C@H]2O)[C@@H](CC=O)C[C@@H](C)[C@@H](O[C@@H]2CC[C@H](N(C)C)[C@@H](C)O2)/C=C/C=C/C[C@@H](C)OC(=O)C[C@H]1OC(C)=O was Potency 30921 nM (cytotoxic, partial curve, poor fit). Result for CC(C)[N+](C)(C)CC(O)COc1cccc2ccccc12 (centres unmarked) was Potency 21890 nM (cytotoxic, partial curve, poor fit). For Clc1cccc(-n2nnnc2NCc2ccccc2Oc2ccccn2)c1Cl the result was Potency 43239 nM (cytotoxic, single point). Result for CCC(=O)O[C@]1(C(=O)CCl)[C@@H](C)C[C@H]2[C@@H]3CCC4=CC(=O)C=C[C@]4(C)[C@@]3(F)[C@@H](O)C[C@@]21C was Potency 24315 nM (cytotoxic, partial curve, poor fit). With COc1ccc2nc(S(=O)Cc3ncc(C)c(OC)c3C)[nH]c2c1 (centres unmarked) the assay gave Potency 43239 nM (cytotoxic, single point).

Result for O=C(Nc1ccc(F)c(C(F)(F)F)c1)Nc1nnc(-c2ccncc2)s1 was Potency 8627 nM (cytotoxic, partial curve, poor fit). Result for O=S(=O)(O)CCSSCCS(=O)(=O)O was Potency 10861 nM (cytotoxic, partial curve, poor fit). Result for COc1ccc2c(c1OC)C(=O)O[C@@H]2[C@H]1c2c(cc3c(c2OC)OCO3)CCN1C was Potency 38927 nM (cytotoxic, partial curve, poor fit). CCCNC(C)C(=O)Nc1ccccc1C (centres unmarked) read Potency 6922 nM (cytotoxic, single point). Result for Cc1c(CN2CCN(S(C)(=O)=O)CC2)sc2c(N3CCOCC3)nc(-c3cnc(N)nc3)nc12 was Potency 108.6 nM (cytotoxic, full curve). CCC(=O)O[C@]1(C(=O)CCl)[C@@H](C)C[C@H]2[C@@H]3CCC4=CC(=O)C=C[C@]4(C)[C@@]3(F)[C@@H](O)C[C@@]21C gave Potency 24561 nM (cytotoxic, partial curve, poor fit). CC1(COc2ccc(CC3SC(=O)NC3=O)cc2)CCCCC1 (centres unmarked) read Potency 17388 nM (cytotoxic, partial curve, poor fit).

CC(C)C[C@@H](C(=O)N[C@H](C(=O)OC1CCCC1)c1ccccc1)[C@H](O)C(=O)NO read Potency 34346 nM (cytotoxic, single point). For CO[C@H]1C=CO[C@@]2(C)Oc3c(C)c(O)c4c(O)c(c(/C=N/N5CCN(C)CC5)c(O)c4c3C2=O)NC(=O)/C(C)=C\C=C[C@H](C)[C@H](O)[C@@H](C)[C@@H](O)[C@@H](C)[C@H](OC(C)=O)[C@@H]1C the result was Potency 19509 nM (cytotoxic, partial curve, poor fit). Result for COc1ccc2nc(S(=O)Cc3ncc(C)c(OC)c3C)[nH]c2c1 (centres unmarked) was Potency 27558 nM (cytotoxic, single point).